# Measured values as given in PMC5996148.
# By UniProt entry, the sequences of proteins in these tests, tags left out. Where a name states a change or a piece, a line headed by the entry shows the natural chain unless it says otherwise.
# UniProt Q9NQ60: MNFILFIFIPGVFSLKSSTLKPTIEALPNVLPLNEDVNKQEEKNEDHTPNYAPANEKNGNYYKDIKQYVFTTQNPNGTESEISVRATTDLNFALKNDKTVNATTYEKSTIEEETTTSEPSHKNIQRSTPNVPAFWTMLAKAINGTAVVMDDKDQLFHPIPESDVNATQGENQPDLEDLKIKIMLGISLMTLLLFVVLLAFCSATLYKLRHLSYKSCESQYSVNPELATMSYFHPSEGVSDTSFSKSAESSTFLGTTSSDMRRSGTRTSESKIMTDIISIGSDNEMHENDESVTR
# Where “and” joins values, the source holds several entries; their conditions need not be identical. Equal values may be shown once. The list shows a part of the results. For some of these results: The exact form of the protein is not confirmed.
# Experiments:
# Assay in all cases: protein microarray (ProtoArray v5.0), streptavidin-Alexa Fluor 647
# Settings in all cases: 3'-biotin; 20 mM Tris (pH 7.5), 5 mM MgCl2, 100 mM KCl, 0.1% Tween-20, A/T-rich and random oligonucleotide blockers; temperature not stated; high values mean tight binding
# C8A (human) = test system: C8A (human)
# C8G (human) = test system: C8G (human)
# C8orf43 (human) = test system: C8orf43 (human)
# C8orf47 (human) = test system: C8orf47 (human)
# C8orf76 (human) = test system: C8orf76 (human)
# C9orf105 (human) = test system: C9orf105 (human)
# C9orf11 = C9orf11 (UniProt Q9NQ60)
# C9orf148 (human) = test system: C9orf148 (human)
# C9orf46 (human) = test system: C9orf46 (human)
# C9orf58 (human) = test system: C9orf58 (human)
sequence,measurement,setting,value
GGGAGGCTGAGGCAGG [G4-1 biotinylated (PQS2)],binding signal,C8A (human),-0.319 z-score
same,binding signal,C8G (human),-0.337 z-score
same,binding signal,C8orf43 (human),-0.357 z-score
same,binding signal,C8orf47 (human),-0.363 z-score
same,binding signal,C8orf76 (human),-0.302 z-score and -0.274 z-score
same,binding signal,C9orf105 (human),-0.294 z-score
same,binding signal,C9orf11,-0.238 z-score
same,binding signal,C9orf148 (human),-0.328 z-score
same,binding signal,C9orf46 (human),-0.307 z-score
same,binding signal,C9orf58 (human),-0.305 z-score

# For reference, part of the list above:
sequence,measurement,setting,value
GGGAGGCTGAGGCAGG [G4-1 biotinylated (PQS2)],binding signal,C9orf11,-0.238 z-score
same,binding signal,C9orf148 (human),-0.328 z-score
same,binding signal,C9orf46 (human),-0.307 z-score
